# Library screen at single concentrations

By UniProt entry, the sequences of proteins in these tests, tags left out. Residues count along the entry.
UniProt A4I591, 1-473: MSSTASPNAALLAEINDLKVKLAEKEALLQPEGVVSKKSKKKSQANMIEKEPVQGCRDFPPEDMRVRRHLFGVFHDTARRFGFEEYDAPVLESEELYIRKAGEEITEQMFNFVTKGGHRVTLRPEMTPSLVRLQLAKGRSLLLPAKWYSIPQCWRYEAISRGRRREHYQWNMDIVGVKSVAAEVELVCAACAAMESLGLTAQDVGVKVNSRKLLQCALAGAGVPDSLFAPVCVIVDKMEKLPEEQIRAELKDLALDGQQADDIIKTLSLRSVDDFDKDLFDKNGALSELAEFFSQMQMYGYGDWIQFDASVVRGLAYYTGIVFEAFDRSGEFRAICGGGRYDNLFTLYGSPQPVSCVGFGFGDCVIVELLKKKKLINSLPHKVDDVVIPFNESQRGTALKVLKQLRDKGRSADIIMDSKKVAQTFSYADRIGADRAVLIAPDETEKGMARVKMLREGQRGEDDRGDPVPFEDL

From ChEMBL document CHEMBL3988442, “University of Dundee, Small-Polar-MMV Screening Library” (2021).

The filed quantity is “Percent Effect” (%). The record does not define 0% and 100%; most values in the screen are far below 50% and negative numbers occur (in some assays of this library far below -100). The compounds are a random part of those screened. A dash means the value is not listed here; it may have been measured.

LiHisRS: 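Enzyme assay of histidyl-tRNA synthetase; the read-out is not stated. Target: Histidine-tRNA ligase, Leishmania infantum (UniProt A4I591). Compounds at 30 µM. Higher reads as stronger inhibition (inferred: compounds with an IC50 in retests scored well above the rest). The assay is labelled LdHisRS but filed under L. infantum. Of about 69,000 compounds tested this way, about 410 (0.6%) reached 50% or more in at least one test.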
Toxoplasma: 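Assay of Toxoplasma gondii numbers, read through their beta-galactosidase reporter with a colour substrate. Tested at 10 µM. The record gives no direction; the compounds picked for IC50 retests had high values, so higher reads as fewer parasites. About 67,000 compounds were tested under these conditions; 0.38% (about 260) showed 50% or more at least once.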

For CC(NCc1cnc(C2CCC2)s1)c1ccc(-n2cccn2)cc1 (stereo not given) the result was LiHisRS: 8.824%; Toxoplasma: -7.462%. For Cc1cc(C2CCN(C(=O)c3cnn(C)c3)CC2)ccn1 the result was LiHisRS: 7.292%; Toxoplasma: -27.44%. CC(CS(C)(=O)=O)N(C(=O)CCc1ccsc1)C1CC1 (stereo not given) read LiHisRS: 9.677%; Toxoplasma: -1.035%. O=C(c1ccccc1)N1CCN(CC(O)c2ccc(F)cc2)CC1 (stereo not given) gave LiHisRS: 12.73%; Toxoplasma: 7.498%. [H][C@@]12CN(C3CCOCC3)C(=O)N1CCN(S(C)(=O)=O)C2 gave Toxoplasma: -0.7685%. With CN1CCOCC2(CCN(Cc3ccc[nH]3)CC2)C1.O=C(O)C(F)(F)F.O=C(O)C(F)(F)F the screen gave Toxoplasma: -1.436%. For COc1cccc(-c2cnnc(N(C)CCC3CCCCO3)n2)c1 (stereo not given) the result was LiHisRS: 8.571%; Toxoplasma: -4.184%. Result for CCCn1nc(C)c(CNC(=O)C2COc3c(cccc3OC)C2)c1C (stereo not given) was LiHisRS: 13.33%; Toxoplasma: 17.72%.

Result for CC(=O)N1CCC2(CCN(Cc3ccc(Cl)c(C(F)(F)F)c3)CC2)C1 was LiHisRS: 12.73%; Toxoplasma: -12.19%. For O=C(O)CC1CN(Cc2ccccc2)CCO1 (stereo not given) the result was LiHisRS: 9.615%. For COCC1CC2(CCN(Cc3cnn(C)c3)CC2)CN1c1ncccn1 (stereo not given) the result was LiHisRS: 17.92%. For O=C(Cn1ccc2ncccc2c1=O)N1CCSCC1 the result was LiHisRS: 17.65%; Toxoplasma: 11.89%. For C=C(C)CN1CCOC(Cn2cncn2)C1 (stereo not given) the result was LiHisRS: 2.128%; Toxoplasma: -13.08%. With O=C(c1ccc(Cl)cc1F)N1CCC(Cn2cc(CO)nn2)CC1 the screen gave LiHisRS: 20.65%; Toxoplasma: 9.03%. For CCCc1nc(Cn2c(=O)n(C)c3ccccc32)no1 the result was LiHisRS: 12.77%; Toxoplasma: 5.207%. With COc1ccc(-n2ccc(C(=O)N(CCN(C)C)C(C)C)n2)cc1 the screen gave LiHisRS: 8.696%; Toxoplasma: 10.83%.

For O=C(c1cccnc1Oc1ccccc1)N1CCCn2ncnc21 the result was LiHisRS: 7.937%; Toxoplasma: 2.301%. Result for Cc1csc(N2CCN(Cc3cnc4c(c3)c(C)nn4C)CC2)n1 was LiHisRS: 19.51%; Toxoplasma: 2.656%. With Fc1cc(Cl)cnc1N1CCCC(c2nccn2Cc2ccncc2)C1 (stereo not given) the screen gave LiHisRS: 11.48%; Toxoplasma: 13.17%. CN(C)C(=O)c1cncnc1-c1ccc(CNC(=O)C2CC2)cc1 gave LiHisRS: 11.27%; Toxoplasma: 23.04%. CCc1cnc(N)nc1NCCn1cc(Cl)cn1 gave LiHisRS: -58.33%; Toxoplasma: 16.58%. Result for CN(C)c1ncc(CN2CCCC(Nc3ccc4c(c3)OCCO4)C2)s1 (stereo not given) was LiHisRS: -3.297%; Toxoplasma: 4.992%. For Cc1cnn(C2CCCN(C(=O)c3sccc3-n3cnnn3)C2)c1 (stereo not given) the result was LiHisRS: 12.77%; Toxoplasma: -3.534%. COc1ccc(NC(=O)Cn2ccc3c(=O)n(C)ccc32)cc1OC gave LiHisRS: 13.48%; Toxoplasma: -0.6653%.

With CN(C1CCCCC1)S(=O)(=O)NC1CCCN(c2ncccn2)C1 (stereo not given) the screen gave LiHisRS: 14.29%; Toxoplasma: 0.8269%. CCOCCNC(=O)c1cccnc1Sc1cc(OC)ccc1OC gave LiHisRS: 11.88%; Toxoplasma: 40.15%. For O=C(C1CCOC1)N1C[C@H]2CN(Cc3cccc(F)c3)C(=O)[C@H]2C1 (stereo not given in full) the result was LiHisRS: 17.82%. For O=S(=O)(NCCc1nc(-c2cccnc2)n[nH]1)NCc1ccccc1 the result was LiHisRS: 8.73%; Toxoplasma: 12.06%. Result for O=C(O)Cc1cccc(-n2ccnc2-c2ccc(F)c(Cl)c2)c1 was LiHisRS: 17.02%; Toxoplasma: -10.28%. CCOc1ccccc1N(C)Cc1nccn1C read LiHisRS: 0%; Toxoplasma: 0.06468%. Result for Cc1cc2n(n1)CC(CNCc1ccccc1Cn1cccn1)CN2 (stereo not given) was LiHisRS: 17.86%; Toxoplasma: -13.13%. c1cc(NCc2cscn2)cc(OCCN2CCCCC2)c1 read LiHisRS: 15.15%; Toxoplasma: 0.9038%.

For [H][C@@]12C[C@H](C)O[C@@]1([H])CCN(C(=O)COCC)C2 the result was Toxoplasma: -26.2%. For CN(CCn1nc2ccccn2c1=O)CC(=O)NC1CC1 the result was LiHisRS: 0%; Toxoplasma: -0.05028%. O=C(NCCC(O)c1ccoc1)Nc1cccs1 (stereo not given) read LiHisRS: 17.39%; Toxoplasma: 1.532%. CN(Cc1ccc(C#N)cc1)Cc1noc(C(C)(C)C)n1 read LiHisRS: 2.83%; Toxoplasma: -4.501%. With Cc1ccc(N2CC[C@H]3O[C@@H](C(=O)NCc4ccco4)CC[C@H]32)nn1 the screen gave LiHisRS: 17.65%. O=C1NCC2CN(Cc3ccccc3OCc3ccccn3)CCN12 (stereo not given) read LiHisRS: 6.122%; Toxoplasma: -4.291%. With Cc1nc(N(C)C)ncc1C(=O)N[C@H]1Cc2ccccc2[C@@H]1N the screen gave LiHisRS: 14.75%; Toxoplasma: 16.84%. Cc1ccc(N2C[C@H](C)[C@]3(CCN(c4cccnc4)C3=O)C2)nn1 read LiHisRS: 5.66%.

With COCC1CN(Cc2cnn(C)c2)Cc2nn(C)cc21 (stereo not given) the screen gave LiHisRS: 5.455%. CCCNC(=O)c1cc2c(c3ccccc3n2C)n1C(=O)N(C)C gave LiHisRS: 9.804%; Toxoplasma: -9.91%. Result for NCc1ccc(OC(F)F)cc1OC(F)F was LiHisRS: -38.46%. With O=C(COCc1nc(-c2ccncc2)no1)N1CCCCC1 the screen gave LiHisRS: 14.16%; Toxoplasma: 19.27%. CCN1CC2(CNCCN(C(=O)Nc3ccccc3)C2)CC1=O.O=C(O)C(F)(F)F (stereo not given) read Toxoplasma: -2.598%. With CCN1CC(C(=O)N2CC(Oc3ccccc3Cl)C2)CC1=O (stereo not given) the screen gave LiHisRS: 19.35%; Toxoplasma: -1.438%. With CS(=O)(=O)Cc1nc(CN2CCc3ccccc3CC2)cs1 the screen gave LiHisRS: 25.64%; Toxoplasma: -5.54%. For CCn1cnnc1CNC(=O)c1cc(Cl)c(I)cc1OC the result was LiHisRS: 14.78%; Toxoplasma: -1.883%.

For reference, 6 entries once more:

SMILES	LiHisRS	Toxoplasma
CCc1cnc(N)nc1NCCn1cc(Cl)cn1	-58.33	16.58
CCOCCNC(=O)c1cccnc1Sc1cc(OC)ccc1OC	11.88	40.15
COc1cccc(-c2cnnc(N(C)CCC3CCCCO3)n2)c1 (stereo not given)	8.571	-4.184
Cc1cnn(C2CCCN(C(=O)c3sccc3-n3cnnn3)C2)c1 (stereo not given)	12.77	-3.534
CN1CCOCC2(CCN(Cc3ccc[nH]3)CC2)C1.O=C(O)C(F)(F)F.O=C(O)C(F)(F)F	-	-1.436
CS(=O)(=O)Cc1nc(CN2CCc3ccccc3CC2)cs1	25.64	-5.54